These substances were tested on HLA-A*02-positive lung cancer (NSCLC) samples (assay: Relative LC-MS quantitation of HLA-A*02 peptide presentation on tumors vs normal tissues). Conditions: FIG. 1A, 1B legends; A*02.
Parameters: species or system human; key to Peptide Presentation (presentation score): very highly over-presented on tumors compared to a panel of normal tissues (+++); highly over-presented on tumors compared to a panel of normal (healthy) tissues (++); over-presented on tumors compared to a panel of normal tissues (+)
“13 (FLFDGSANL; listed as Homo sapiens) [compound 13]” was tested, and the “peptide was also found on (other cancers, not shown)” value was “prostate cancer, breast cancer, colorectal cancer, hepatic cancer, melanoma, ovarian cancer, esophageal cancer, pancreatic cancer, gastric cancer”.

Same assay, conditions: HLA-A*02 peptides, amendment of Table 9; >5% of measured tumor samples or ratio of geometric means tumor vs normal >3
“7 (NLLQVLEKV; listed as Homo sapiens) [compound 7]” was tested, and the “Additional Entities (additional tumor types showing over-presentation)” value was “SCLC, OC, Urinary bladder cancer, Uterine Cancer, Gallbladder Cancer, Bile Duct Cancer”.
With “13 (FLFDGSANL; listed as Homo sapiens) [compound 13]” the “Additional Entities (additional tumor types showing over-presentation)” value was “SCLC, GC, Melanoma, OC, Urinary bladder cancer, Gallbladder Cancer, Bile Duct Cancer”.

Same assay, conditions: HLA-A*02 peptides; over-presented on >5% of measured tumour samples, or presented on >5% with ratio of geometric means tumour vs normal >3
For “7 (NLLQVLEKV; listed as Homo sapiens) [compound 7]”, the “Other relevant organs/diseases (additional tumour types on which the peptide was found)” value was “Kidney, Colon, Rectum, Liver, Breast”.
“149 (KLVEFDFLGA; listed as Homo sapiens) [compound 149]” was tested, and the “Other relevant organs/diseases (additional tumour types on which the peptide was found)” value was “Brain, Stomach, Colon, Rectum, Liver, MCC, Ovary, Esophagus”.
In the case of “124 (NLLDLDYEL; listed as Homo sapiens) [compound 124]”, the “Other relevant organs/diseases (additional tumour types on which the peptide was found)” value is reported as “Stomach, Colon, Rectum, Pancreas, Breast, Ovary, Esophagus”.
For “13 (FLFDGSANL; listed as Homo sapiens) [compound 13]”, the “Other relevant organs/diseases (additional tumour types on which the peptide was found)” value was “Colon, Rectum, Pancreas, Breast, Esophagus”.

Same assay, conditions: HLA-A*02 peptides; tumors compared to a panel of normal tissues
For “MXRA5-002 (GLTDNIHLV; listed as Homo sapiens)”, the “Peptide Presentation (presentation score)” value was “++”.
“DONSON-001 (VLYPHEPTAV; listed as Homo sapiens)” was tested, and the “Peptide Presentation (presentation score)” value was “++”.

The substances below were run on HLA-A*24-positive lung cancer (NSCLC) samples (assay: Relative LC-MS quantitation of HLA-A*24 peptide presentation on tumors vs normal tissues). Conditions: FIG. 1C, 1D, 1G legends; A*24.
Parameters: species or system human
In the case of “25 (RFMDGHITF; listed as Homo sapiens) [compound 25]”, the “peptide was also found on (other cancers, not shown)” value is reported as “prostate cancer, gastric cancer”.
In the case of “23 (VYTSWQIPQKF; listed as Homo sapiens) [compound 23]”, the “peptide was also found on (other cancers, not shown)” value is reported as “prostate cancer, gastric cancer”.
For “28 (RYLDSLKAIVF; listed as Homo sapiens) [compound 28]”, the “peptide was also found on (other cancers, not shown)” value was “hepatic cancer, gastric cancer, RCC”.

Same assay, conditions: HLA-A*24 peptides, amendment of Table 10
For “46 (NYTNGSFGSNF; listed as Homo sapiens) [compound 46]”, the “Additional Entities (additional tumor types showing over-presentation)” value was “Brain Cancer”.
“67 (IFLDYEAGHLSF; listed as Homo sapiens) [compound 67]” was tested, and the “Additional Entities (additional tumor types showing over-presentation)” value was “Brain Cancer”.
For “48 (YYYGNTLVEF; listed as Homo sapiens) [compound 48]”, the “Additional Entities (additional tumor types showing over-presentation)” value was “Brain Cancer”.
“40 (IYNPSMGVSVL; listed as Homo sapiens) [compound 40]” was tested, and the “Additional Entities (additional tumor types showing over-presentation)” value was “Brain Cancer”.
With “27 (RYPPPVREF; listed as Homo sapiens) [compound 27]” the “Additional Entities (additional tumor types showing over-presentation)” value was “Brain Cancer”.
For “32 (EYQPEMLEKF; listed as Homo sapiens) [compound 32]”, the “Additional Entities (additional tumor types showing over-presentation)” value was “Brain Cancer”.
With “57 (SYSIGIANF; listed as Homo sapiens) [compound 57]” the “Additional Entities (additional tumor types showing over-presentation)” value was “Brain Cancer”.
“76 (VYTZIQSRF; listed as Homo sapiens) [compound 76]” was tested, and the “Additional Entities (additional tumor types showing over-presentation)” value was “Brain Cancer”.

Same assay, conditions: HLA-A*24 peptides; over-presented on >5% of measured tumor samples, or presented on >5% with ratio of geometric means tumor vs normal >3
With “42 (VYVTIDENNIL; listed as Homo sapiens) [compound 42]” the “Other relevant organs/diseases (additional tumor types on which the peptide was found)” value was “Kidney, Stomach”.
With “59 (HYFNTPFQL; listed as Homo sapiens) [compound 59]” the “Other relevant organs/diseases (additional tumor types on which the peptide was found)” value was “Kidney, Brain, Liver, Prostate”.
“49 (QYLFPSFETF; listed as Homo sapiens) [compound 49]” was tested, and the “Other relevant organs/diseases (additional tumor types on which the peptide was found)” value was “Stomach”.
With “33 (TYSEKTTLF; listed as Homo sapiens) [compound 33]” the “Other relevant organs/diseases (additional tumor types on which the peptide was found)” value was “Stomach”.
In the case of “44 (IYNQIAELW; listed as Homo sapiens) [compound 44]”, the “Other relevant organs/diseases (additional tumor types on which the peptide was found)” value is reported as “Stomach, Liver”.
In the case of “53 (IYAGQWNDF; listed as Homo sapiens) [compound 53]”, the “Other relevant organs/diseases (additional tumor types on which the peptide was found)” value is reported as “Prostate”.
For “71 (TYLTNHLRL; listed as Homo sapiens) [compound 71]”, the “Other relevant organs/diseases (additional tumor types on which the peptide was found)” value was “Liver”.
In the case of “78 (IYTRVTYYL; listed as Homo sapiens) [compound 78]”, the “Other relevant organs/diseases (additional tumor types on which the peptide was found)” value is reported as “Stomach, Prostate”.
With “46 (NYTNGSFGSNF; listed as Homo sapiens) [compound 46]” the “Other relevant organs/diseases (additional tumor types on which the peptide was found)” value was “Liver”.
In the case of “41 (TYIGQGYII; listed as Homo sapiens) [compound 41]”, the “Other relevant organs/diseases (additional tumor types on which the peptide was found)” value is reported as “Brain, Stomach, Liver, Prostate”.
In the case of “56 (RYFPTQALNF; listed as Homo sapiens) [compound 56]”, the “Other relevant organs/diseases (additional tumor types on which the peptide was found)” value is reported as “Kidney, Stomach, Liver”.
For “77 (RYLEAGAAGLRW; listed as Homo sapiens) [compound 77]”, the “Other relevant organs/diseases (additional tumor types on which the peptide was found)” value was “Stomach, Liver”.
“54 (AYKDKDISFF; listed as Homo sapiens) [compound 54]” was tested, and the “Other relevant organs/diseases (additional tumor types on which the peptide was found)” value was “Kidney, Brain”.
For “67 (IFLDYEAGHLSF; listed as Homo sapiens) [compound 67]”, the “Other relevant organs/diseases (additional tumor types on which the peptide was found)” value was “Kidney, Stomach, Liver, Prostate”.
With “79 (RYGGSFAEL; listed as Homo sapiens) [compound 79]” the “Other relevant organs/diseases (additional tumor types on which the peptide was found)” value was “Brain, Liver”.
With “60 (SYPAKLSFI; listed as Homo sapiens) [compound 60]” the “Other relevant organs/diseases (additional tumor types on which the peptide was found)” value was “Liver”.
With “36 (YYGNTLVEF; listed as Homo sapiens) [compound 36]” the “Other relevant organs/diseases (additional tumor types on which the peptide was found)” value was “Brain, Stomach”.
With “45 (KFLESKGYEF; listed as Homo sapiens) [compound 45]” the “Other relevant organs/diseases (additional tumor types on which the peptide was found)” value was “Brain”.
“66 (DYIPQLAKF; listed as Homo sapiens) [compound 66]” was tested, and the “Other relevant organs/diseases (additional tumor types on which the peptide was found)” value was “Kidney, Liver”.
In the case of “75 (AYPDLNEIYRSF; listed as Homo sapiens) [compound 75]”, the “Other relevant organs/diseases (additional tumor types on which the peptide was found)” value is reported as “Liver”.
With “69 (TYAALNSKATF; listed as Homo sapiens) [compound 69]” the “Other relevant organs/diseases (additional tumor types on which the peptide was found)” value was “Liver”.
“27 (RYPPPVREF; listed as Homo sapiens) [compound 27]” was tested, and the “Other relevant organs/diseases (additional tumor types on which the peptide was found)” value was “Liver, Prostate”.
“81 (KYIEAIQWI; listed as Homo sapiens) [compound 81]” was tested, and the “Other relevant organs/diseases (additional tumor types on which the peptide was found)” value was “Liver”.
For “84 (TFDVAPSRLDF; listed as Homo sapiens) [compound 84]”, the “Other relevant organs/diseases (additional tumor types on which the peptide was found)” value was “Liver, Prostate”.
In the case of “61 (RYGSPINTF; listed as Homo sapiens) [compound 61]”, the “Other relevant organs/diseases (additional tumor types on which the peptide was found)” value is reported as “Liver, Prostate”.
In the case of “80 (AYLKEVEQL; listed as Homo sapiens) [compound 80]”, the “Other relevant organs/diseases (additional tumor types on which the peptide was found)” value is reported as “Brain, Prostate”.
For “28 (RYLDSLKAIVF; listed as Homo sapiens) [compound 28]”, the “Other relevant organs/diseases (additional tumor types on which the peptide was found)” value was “Kidney, Liver”.
For “76 (VYTZIQSRF; listed as Homo sapiens) [compound 76]”, the “Other relevant organs/diseases (additional tumor types on which the peptide was found)” value was “Liver, Prostate”.

From US10526389B2, “Peptides and combinations of peptides for use in immunotherapy against lung cancer, including NSCLC and other cancers” (Immatics Biotechnologies GmbH, priority 2015, dated 2020)
